The target of test [1] is T1, GFP-LMKB(1622–1742) (human) (UniProt Q9Y4F3).
T1 sequence: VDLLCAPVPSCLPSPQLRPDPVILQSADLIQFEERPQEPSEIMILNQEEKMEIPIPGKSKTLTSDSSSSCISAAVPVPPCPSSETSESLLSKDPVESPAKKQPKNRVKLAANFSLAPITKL
The test is described as follows: co-IP; extracts of co-transfected COS-7 cells incubated with mouse anti-GFP antibodies and protein G Sepharose; co-precipitated FLAG-Ge-1 detected with anti-FLAG antibodies.

Test [2] concerns the target T2, GFP-LMKB(1457–1742) (human) (UniProt Q9Y4F3).
T2 sequence: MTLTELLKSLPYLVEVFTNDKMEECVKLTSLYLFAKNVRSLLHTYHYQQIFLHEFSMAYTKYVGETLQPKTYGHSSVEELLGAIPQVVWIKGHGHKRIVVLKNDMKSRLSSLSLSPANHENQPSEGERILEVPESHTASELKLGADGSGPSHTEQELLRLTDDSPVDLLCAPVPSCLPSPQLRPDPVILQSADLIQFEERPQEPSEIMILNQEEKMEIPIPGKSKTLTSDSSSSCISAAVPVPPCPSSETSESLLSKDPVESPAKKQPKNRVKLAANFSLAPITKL
The description is as above.

The target of test [3] is NLS-Ge-1 (Ge-1 fused to an exogenous nuclear localization sequence). The test is described as follows: two-hybrid; modified two-hybrid assay inside HEp-2 cells: Ge-1 (whole or fragment) fused to an exogenous NLS localizes to nuclear dots; recruitment of co-expressed GFP- or RFP-fused LMBK partner (LMKB whole or fragments) to the nuclear dots read by immunofluorescence; cells fixed and stained 24 hours after transfection.

No constants are given. Whether binding was seen depends on the method and setting. Binding can be weak; no strength is given. Tags and fused reporters may be left off the sequences shown. For part of these data: In cells and extracts the contact can be indirect.

Turning to FLAG-Ge-1, the binding entry in test [1] and in test [2] was “binds” in each case.

B1: GFP-LMKB(1622–1742) (domain or fragment, UniProt Q9Y4F3-1 1622-1742)
chain: VDLLCAPVPSCLPSPQLRPDPVILQSADLIQFEERPQEPSEIMILNQEEKMEIPIPGKSKTLTSDSSSSCISAAVPVPPCPSSETSESLLSKDPVESPAKKQPKNRVKLAANFSLAPITKL
For B1, in test [3], the binding entry is “binds”.

B2: GFP-LMKB(389–1199) (domain or fragment, UniProt Q9Y4F3-1 389-1199)
chain: EFICVCDISKENKEVIQELNNCQVTVAHINATAKNAADDKLRQSLRRFANTHTAPATVVLVSTDVNFALELSDLRHRHGFHIILVHKNQASEALLHHANELIRFEEFISDLPPRLPLKMPQCHTLLYVYNLPANKDGKSVSNRLRRLSDNCGGKVLSITGCSAILRFINQDSAERAQKRMENEDVFGNRIIVSFTPKNRELCETKSSNAIADKVKSPKKLKNPKLCLIKDASEQSSSAKATPGKGSQANSGSATKNTNVKSLQELCRMESKTGHRNSEHQQGHLRLVVPTHGNSSAAVSTPKNSGVAEPVYKTSQKKENLSARSVTSSPVEKKDKEETVFQVSYPSAFSKLVASRQVSPLLASQSWSSRSMSPNLLNRASPLAFNIANSSSEADCPDPFANGADVQVSNIDYRLSRKELQQLLQEAFARHGKVKSVELSPHTDYQLKAVVQMENLQDAIGAVNSLHRYKIGSKKILVSLATGAASKSLSLLSAETMSVLQDAPACCLPLFKFTDIYEKKFGHKLNVSDLYKLTDTVAIREQGNGRLVCLLPSSQARQSPLGSSQSHDGSSTNCSPIIFEELEYHEPVCRQHCSNKDFSEHEFDPDSYKIPFVILSLKTFAPQVHSLLQTHEGTVPLLSFPDCYIAEFGDLEVVQENQGGVPLEHFITCVPGVNIATAQNGIKVVKWIHNKPPPPNTDPWLLRSKSPVGNPQLIQFSREVIDLLKSQPSCVIPISHFIPSYHHHFAKQCRVSDYGYSKLIELLEAVPHVLQILGMGSKRLLTLTHRAQVKRFTQDLLKLLKSQASKQVIVRE
Consider B2, for which, in test [3], the binding result is on record as “no binding”.

B3: GFP-LMKB(1457–1742) (domain or fragment, UniProt Q9Y4F3-1 1457-1742)
chain: MTLTELLKSLPYLVEVFTNDKMEECVKLTSLYLFAKNVRSLLHTYHYQQIFLHEFSMAYTKYVGETLQPKTYGHSSVEELLGAIPQVVWIKGHGHKRIVVLKNDMKSRLSSLSLSPANHENQPSEGERILEVPESHTASELKLGADGSGPSHTEQELLRLTDDSPVDLLCAPVPSCLPSPQLRPDPVILQSADLIQFEERPQEPSEIMILNQEEKMEIPIPGKSKTLTSDSSSSCISAAVPVPPCPSSETSESLLSKDPVESPAKKQPKNRVKLAANFSLAPITKL
B3: the binding entry in test [3] is “binds”.

B4: GFP-LMKB(1–687) (domain or fragment, UniProt Q9Y4F3-1 1-687)
chain: MMEGNGTENSCSRTRGWLQQDNDAKPWLWKFSNCFSRPEQTLPHSPQTKEYMENKKVAVELKDVPSPLHAGSKLFPAVPLPDIRSLQQPKIQLSSVPKVSCCAHCPNEPSTSPMRFGGGGGGSGGTSSLIHPGALLDSQSTRTITCQVGSGFAFQSASSLQNASARNNLAGIASDFPSMCLESNLSSCKHLPCCGKLHFQSCHGNVHKLHQFPSLQGCTSAGYFPCSDFTSGAPGHLEEHISQSELTPHLCTNSLHLNVVPPVCLKGSLYCEDCLNKPARNSIIDAAKVWPNIPPPNTQPAPLAVPLCNGCGTKGTGKETTLLLATSLGKAASKFGSPEVAVAGQVLENLPPIGVFWDIENCSVPSGRSATAVVQRIREKFFKGHREAEFICVCDISKENKEVIQELNNCQVTVAHINATAKNAADDKLRQSLRRFANTHTAPATVVLVSTDVNFALELSDLRHRHGFHIILVHKNQASEALLHHANELIRFEEFISDLPPRLPLKMPQCHTLLYVYNLPANKDGKSVSNRLRRLSDNCGGKVLSITGCSAILRFINQDSAERAQKRMENEDVFGNRIIVSFTPKNRELCETKSSNAIADKVKSPKKLKNPKLCLIKDASEQSSSAKATPGKGSQANSGSATKNTNVKSLQELCRMESKTGHRNSEHQQGHLRLVVPTHGNSSAAVS
As for B4, the binding entry in test [3] was “no binding”.

(Values after article PMC3995692.)
